PMC6305323
No constants are given. Whether binding was seen depends on the method and setting. Binding seen in cells or lysates may run through a third protein. A result given as binding can be weak or reduced; the word gives no strength. Sequences can lack the tags named with a protein.

Chains of the proteins cited; added tags and fusions are not shown. Lines headed by an entry give the natural chain unless they say otherwise; changes in a name come on top.
UniProt A0A0P0X2F6: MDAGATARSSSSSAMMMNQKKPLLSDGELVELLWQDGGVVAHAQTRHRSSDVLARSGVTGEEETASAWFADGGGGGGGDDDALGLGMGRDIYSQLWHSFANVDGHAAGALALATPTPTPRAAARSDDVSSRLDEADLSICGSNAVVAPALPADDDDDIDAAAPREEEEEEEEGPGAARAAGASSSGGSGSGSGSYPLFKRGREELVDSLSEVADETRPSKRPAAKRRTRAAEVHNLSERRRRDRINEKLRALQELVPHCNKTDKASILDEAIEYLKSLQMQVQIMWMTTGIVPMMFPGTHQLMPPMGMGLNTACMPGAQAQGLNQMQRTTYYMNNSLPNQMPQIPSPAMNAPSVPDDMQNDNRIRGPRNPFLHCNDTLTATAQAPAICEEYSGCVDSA

Target: T1, GFP-SLR1 (rice) (UniProt Q7G7J6)
T1 sequence: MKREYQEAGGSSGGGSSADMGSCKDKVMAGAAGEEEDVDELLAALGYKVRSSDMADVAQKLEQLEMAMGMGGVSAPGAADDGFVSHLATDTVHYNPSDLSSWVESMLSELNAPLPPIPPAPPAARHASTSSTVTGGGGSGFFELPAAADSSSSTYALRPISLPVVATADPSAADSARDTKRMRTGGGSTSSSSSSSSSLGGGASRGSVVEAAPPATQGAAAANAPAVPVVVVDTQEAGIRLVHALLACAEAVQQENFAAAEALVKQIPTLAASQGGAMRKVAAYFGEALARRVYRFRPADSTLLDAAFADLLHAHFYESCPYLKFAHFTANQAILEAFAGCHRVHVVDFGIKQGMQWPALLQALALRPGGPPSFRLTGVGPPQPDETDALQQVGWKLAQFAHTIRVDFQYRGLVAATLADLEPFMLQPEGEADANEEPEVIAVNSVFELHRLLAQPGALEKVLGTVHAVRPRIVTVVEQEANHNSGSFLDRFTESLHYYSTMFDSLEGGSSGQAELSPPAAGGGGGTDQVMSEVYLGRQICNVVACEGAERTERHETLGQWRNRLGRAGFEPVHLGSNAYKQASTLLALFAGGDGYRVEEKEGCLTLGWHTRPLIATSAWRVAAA
Assay: co-IP; rice protoplasts co-transformed with 6xMyc- and GFP-tagged constructs, 10 h in the dark at 28°C; IP buffer 25 mM Tris-HCl pH 7.5, 150 mM NaCl, 0.5 % Triton X-100, 1 mM EDTA, 1 mM DTT; GFP or Myc antibody and Protein G agarose beads; western blot with the other antibody

6xMyc-OsPIL14 (from UniProt A0A0P0X2F6)
binding: binds
